Counter-ions that a name gives are not always drawn. The list shows a part of the results. Repeats are few or missing, and single values can be far off.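 Primary human fetal astrocytes engulfed labelled rat cortical synaptosomes, measured as a red/green ratio corrected for calcein live-cell signal and scaled to the plate median. Toxicity meant calcein falling over 30%; decreased phagocytosis meant below 70% of median above 5 µM.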
Key:
Details in all cases: 24 h
Human fetal astrocytes [1] = test: loss of total cells relative to no-compound high-control median (toxicity); higher = more toxic (fewer cells)
Human fetal astrocytes [2] = test: synaptosome phagocytosis (pHrodo/calcein intensity ratio) relative to plate median of data wells; higher = more phagocytosis
Human fetal astrocytes [3] = test: loss of total cells relative to no-compound high-control median (toxicity); higher = more toxic (fewer cells); remark: listed apart in the source
Human fetal astrocytes [4] = test: synaptosome phagocytosis (pHrodo/calcein intensity ratio) relative to plate median of data wells; higher = more phagocytosis; remark: listed apart in the source

Row | Compound | loss of total cells (Human fetal astrocytes [1]; 1.39 µM) [%] | loss of total cells (Human fetal astrocytes [1]; 2.78 µM) [%] | loss of total cells (Human fetal astrocytes [1]; 5.56 µM) [%] | loss of total cells (Human fetal astrocytes [1]; 11.11 µM) [%] | loss of total cells (Human fetal astrocytes [1]; 22.22 µM) [%] | synaptosome phagocytosis (Human fetal astrocytes [2]; 1.39 µM) [%] | synaptosome phagocytosis (Human fetal astrocytes [2]; 2.78 µM) [%] | synaptosome phagocytosis (Human fetal astrocytes [2]; 5.56 µM) [%] | synaptosome phagocytosis (Human fetal astrocytes [2]; 11.11 µM) [%] | synaptosome phagocytosis (Human fetal astrocytes [2]; 22.22 µM) [%] | loss of total cells (Human fetal astrocytes [3]; 1.39 µM) [%] | loss of total cells (Human fetal astrocytes [3]; 2.78 µM) [%] | loss of total cells (Human fetal astrocytes [3]; 5.56 µM) [%] | loss of total cells (Human fetal astrocytes [3]; 11.11 µM) [%] | loss of total cells (Human fetal astrocytes [3]; 22.22 µM) [%] | synaptosome phagocytosis (Human fetal astrocytes [4]; 1.39 µM) [%] | synaptosome phagocytosis (Human fetal astrocytes [4]; 2.78 µM) [%] | synaptosome phagocytosis (Human fetal astrocytes [4]; 5.56 µM) [%] | synaptosome phagocytosis (Human fetal astrocytes [4]; 11.11 µM) [%] | synaptosome phagocytosis (Human fetal astrocytes [4]; 22.22 µM) [%]
1 | N.N.[Cl][Pt][Cl] | 2.4 | -32.5 | 5.6 | 39.7 | 3.4 | 130 | 124 | 92.9 | 133 | 92.6 | – | – | – | – | – | – | – | – | – | –
2 | COC1=C[C@@H]2[C@@H]3Cc4ccc(OC)c(O)c4[C@]2(CCN3C)CC1=O | 3.2 | -1.8 | 11.6 | 8.8 | 2.3 | 70.8 | 97.2 | 73.3 | 51.8 | 88.4 | – | – | – | – | – | – | – | – | – | –
3 | CC[C@@H](CO)NC(=O)[C@@H]1C=C2c3cccc4[nH]cc(c34)C[C@H]2N(C)C1 [Methylergonovine maleate] | 15.1 | -5.8 | -10.5 | -10.7 | 31.9 | 121 | 108 | 80.8 | 97.4 | 126 | -25.1 | 4.1 | 0.5 | 18.1 | 4.7 | 114 | 88.4 | 73.5 | 96.1 | 119
4 | C=C[C@H]1CN2CC[C@H]1C[C@H]2[C@H](O)c1ccnc2ccccc12 | 6.2 | 5.1 | -12.5 | -4.3 | 9.4 | 126 | 101 | 82.7 | 91.4 | 111 | – | – | – | – | – | – | – | – | – | –
5 | c1cncc([C@@H]2CCCCN2)c1 | -18.9 | -5.4 | -7.3 | 14.2 | -4.4 | 145 | 104 | 114 | 106 | 94.5 | – | – | – | – | – | – | – | – | – | –
6 | Nc1ncn[nH]1 | -18 | 9 | -5.9 | 6.1 | 0 | 108 | 114 | 92.3 | 109 | 96.3 | – | – | – | – | – | – | – | – | – | –
7 | COc1cc2c(cc1OC)[C@H](C)NCC2 | -12.3 | 11.2 | 24.2 | 5.4 | 11.9 | 90.9 | 79.9 | 138 | 90.9 | 90.8 | – | – | – | – | – | – | – | – | – | –
8 | COc1cc2c(cc1OC)[C@@H]1C(=O)c3ccc4oc(C(C)C)cc4c3O[C@@H]1CO2 | -7.6 | 17.9 | 6.1 | 9.7 | 18.1 | 83.7 | 110 | 96.3 | 70.9 | 28.4 | – | – | – | – | – | – | – | – | – | –
9 | Oc1ccc2c3c1O[C@H]1[C@@H](O)CC[C@@]4(O)[C@@H](C2)N(CC2CCC2)CC[C@]314 | -26.6 | -20.4 | -17.1 | -16.4 | -5.7 | 103 | 94.3 | 94.7 | 96.8 | 82.7 | – | – | – | – | – | – | – | – | – | –
10 | O=c1ccc2cc(O[C@@H]3O[C@H](CO)[C@@H](O)[C@H](O)[C@H]3O)c(O)cc2o1 | 12.6 | 4 | 21 | -12.1 | 10.6 | 115 | 92.4 | 121 | 97 | 122 | – | – | – | – | – | – | – | – | – | –
11 | C[C@@H](CO)NC(=O)[C@@H]1C=C2c3cccc4[nH]cc(c34)C[C@H]2N(C)C1 | -2.1 | -14.6 | -0.7 | -0.9 | -11.2 | 89.6 | 78.6 | 94.5 | 93.7 | 112 | – | – | – | – | – | – | – | – | – | –
12 | C=C(C)[C@H]1Cc2c(ccc3c2O[C@@H]2COc4cc(OC)c(OC)cc4[C@@H]2C3=O)O1 [Rotenone] | 13.4 | 27.9 | 5.3 | 32.3 | 33.7 | 52 | 85 | 63 | 81.5 | 56.4 | 2.2 | 9.9 | 18 | 34.9 | 23.9 | 72.5 | 89.7 | 70.4 | 87.6 | 68.5
13 | CCC(C)C(=O)O[C@@H]1C[C@@]2(C)[C@H](c3ccoc3)OC(=O)CC23OC2(C)O[C@]14[C@]1(C)[C@@H](CC(=O)OC)C5(C)CC1(O)[C@](O)(C5OC(=O)C1(C)OC1C)[C@@H](OC(C)=O)[C@]34O2 (stereo not given in full) | -3.3 | 12 | 34.4 | -3.2 | 33.7 | 110 | 103 | 133 | 98.1 | 126 | – | – | – | – | – | – | – | – | – | –
14 | C/C=C/c1ccc2c(c1)OCO2 | -20.5 | 4.7 | 13.9 | 20.3 | 0.7 | 104 | 58.1 | 117 | 142 | 94.4 | – | – | – | – | – | – | – | – | – | –

Copied from the list.
`C/C=C/c1ccc2c(c1)OCO2` | loss of total cells (Human fetal astrocytes [1]; 5.56 µM) [%]: 13.9
`C[C@@H](CO)NC(=O)[C@@H]1C=C2c3cccc4[nH]cc(c34)C[C@H]2N(C)C1` | loss of total cells (Human fetal astrocytes [1]; 5.56 µM) [%]: -0.7
